No constants are given. Whether binding was seen depends on the method and setting. In cells and extracts the contact can be indirect. Some results given as binding are weak or reduced against the parent protein; the word gives no strength.
Molecular target: GST-Coro1A (UniProt P31146)
Experiment: pull-down; GST-Coro1A pull-down of endogenous PKCθ from mouse CD3+ T cells; seen both with and without CD3/CD28 stimulation; only the target purified

Protein sequences, listed by entry. Tags and fused reporters are not part of them.
UniProt P31146: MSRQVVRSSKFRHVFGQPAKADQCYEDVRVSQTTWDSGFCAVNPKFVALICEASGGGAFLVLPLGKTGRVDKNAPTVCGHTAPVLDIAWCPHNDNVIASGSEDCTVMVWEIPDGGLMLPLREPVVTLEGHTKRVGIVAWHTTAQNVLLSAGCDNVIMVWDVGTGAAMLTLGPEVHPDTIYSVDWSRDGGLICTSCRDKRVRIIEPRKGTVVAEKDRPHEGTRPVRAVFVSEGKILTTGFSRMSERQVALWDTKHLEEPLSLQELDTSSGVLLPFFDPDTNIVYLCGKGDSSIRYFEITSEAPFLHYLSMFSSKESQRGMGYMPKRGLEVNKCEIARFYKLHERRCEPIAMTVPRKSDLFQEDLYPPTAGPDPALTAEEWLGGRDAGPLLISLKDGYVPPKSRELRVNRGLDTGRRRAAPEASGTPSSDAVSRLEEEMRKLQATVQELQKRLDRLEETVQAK
UniProt Q02111: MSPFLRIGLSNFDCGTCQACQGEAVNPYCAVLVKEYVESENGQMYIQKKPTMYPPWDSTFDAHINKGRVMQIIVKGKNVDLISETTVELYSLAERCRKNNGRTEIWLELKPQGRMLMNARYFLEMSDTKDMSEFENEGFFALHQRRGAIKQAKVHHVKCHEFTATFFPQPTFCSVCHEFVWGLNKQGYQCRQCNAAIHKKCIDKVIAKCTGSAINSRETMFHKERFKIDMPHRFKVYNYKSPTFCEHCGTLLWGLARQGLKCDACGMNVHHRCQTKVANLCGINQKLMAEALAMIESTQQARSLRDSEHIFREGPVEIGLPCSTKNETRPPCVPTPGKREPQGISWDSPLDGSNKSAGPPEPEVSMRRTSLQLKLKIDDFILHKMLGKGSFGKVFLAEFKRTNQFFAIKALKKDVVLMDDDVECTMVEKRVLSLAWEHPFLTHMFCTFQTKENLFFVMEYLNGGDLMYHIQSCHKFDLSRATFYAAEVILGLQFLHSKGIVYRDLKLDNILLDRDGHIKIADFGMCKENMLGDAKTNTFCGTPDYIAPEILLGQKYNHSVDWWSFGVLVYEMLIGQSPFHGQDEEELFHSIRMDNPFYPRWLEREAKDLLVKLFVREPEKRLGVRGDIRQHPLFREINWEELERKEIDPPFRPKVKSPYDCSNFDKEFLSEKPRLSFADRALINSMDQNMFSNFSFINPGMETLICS

“PKCθ, endogenous in mouse CD3+ T cells (from UniProt Q02111 1-707) (enzyme)” was tested, and the binding was “binds”.
